Assay results taken from paper PMC8976005.
Results are given in words; binding and its absence hold for the method and conditions named. Binding seen in cells or lysates may run through a third protein. A yes stands for co-enrichment or nearness to the bait. Other partners may have been found.

Amino acid sequences for entries named in this document (tags omitted).
UniProt Q9UI12: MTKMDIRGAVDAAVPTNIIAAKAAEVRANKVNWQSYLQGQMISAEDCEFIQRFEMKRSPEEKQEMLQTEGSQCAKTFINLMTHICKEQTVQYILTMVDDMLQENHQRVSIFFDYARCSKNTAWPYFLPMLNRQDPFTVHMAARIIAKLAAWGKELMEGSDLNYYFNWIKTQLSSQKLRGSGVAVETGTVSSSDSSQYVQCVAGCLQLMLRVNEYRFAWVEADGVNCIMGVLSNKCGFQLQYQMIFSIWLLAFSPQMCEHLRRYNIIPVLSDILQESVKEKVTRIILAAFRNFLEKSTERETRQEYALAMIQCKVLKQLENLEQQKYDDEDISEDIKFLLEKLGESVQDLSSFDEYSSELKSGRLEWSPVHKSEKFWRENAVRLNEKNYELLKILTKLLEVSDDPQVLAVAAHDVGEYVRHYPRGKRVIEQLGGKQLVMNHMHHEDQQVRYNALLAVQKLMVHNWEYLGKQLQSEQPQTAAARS

Target: T1, TurboID-STK11IP (human) (UniProt Q8N1F8)
T1 sequence: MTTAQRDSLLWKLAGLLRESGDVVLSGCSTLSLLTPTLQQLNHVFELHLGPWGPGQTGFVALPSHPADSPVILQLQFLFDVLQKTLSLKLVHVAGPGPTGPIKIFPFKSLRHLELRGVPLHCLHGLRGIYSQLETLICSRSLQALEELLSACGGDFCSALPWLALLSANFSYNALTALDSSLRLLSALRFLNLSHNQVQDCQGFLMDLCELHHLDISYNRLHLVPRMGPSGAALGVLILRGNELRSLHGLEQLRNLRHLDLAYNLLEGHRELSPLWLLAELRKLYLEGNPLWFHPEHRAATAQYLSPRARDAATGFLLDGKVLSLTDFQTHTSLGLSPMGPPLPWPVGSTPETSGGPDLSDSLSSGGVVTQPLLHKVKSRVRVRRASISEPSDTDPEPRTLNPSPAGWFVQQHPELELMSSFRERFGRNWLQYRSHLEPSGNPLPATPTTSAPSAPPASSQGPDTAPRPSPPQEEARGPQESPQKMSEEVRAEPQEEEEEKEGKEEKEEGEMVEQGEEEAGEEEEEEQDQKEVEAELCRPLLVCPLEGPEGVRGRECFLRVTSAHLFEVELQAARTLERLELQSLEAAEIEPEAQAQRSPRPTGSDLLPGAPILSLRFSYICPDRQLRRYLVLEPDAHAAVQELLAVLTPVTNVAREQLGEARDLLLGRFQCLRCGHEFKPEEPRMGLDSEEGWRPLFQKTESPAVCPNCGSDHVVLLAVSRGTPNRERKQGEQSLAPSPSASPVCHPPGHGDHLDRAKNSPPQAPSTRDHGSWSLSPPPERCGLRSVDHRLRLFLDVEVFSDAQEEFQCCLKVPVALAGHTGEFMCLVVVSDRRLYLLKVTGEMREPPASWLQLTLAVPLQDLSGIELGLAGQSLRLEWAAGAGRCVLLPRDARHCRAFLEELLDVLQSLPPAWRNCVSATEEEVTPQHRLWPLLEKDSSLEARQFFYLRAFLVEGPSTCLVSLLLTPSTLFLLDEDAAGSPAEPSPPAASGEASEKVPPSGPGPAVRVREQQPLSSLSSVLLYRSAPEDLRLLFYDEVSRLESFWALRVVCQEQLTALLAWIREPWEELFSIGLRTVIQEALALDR
Assay: proximity labelling; HEK293T cells stably expressing TurboID-STK11IP; 50 μM biotin for 2 h in complete or amino acid depleted medium; 1% SDS lysis, streptavidin beads, on-beads digestion, MS

| binding | Substance |
| --- | --- |
| binds | ATP6V1B (human (endogenous in HEK293T)) |
| binds | ATP6V1H (from UniProt Q9UI12 1-483) |
